In article PMC7966800, “Adiponectin-expressing Treg facilitate T lymphocyte development in thymic nurse cell complexes” (Communications Biology, 2021):
No constants are given. Whether binding was seen depends on the method and setting. Binding seen in cells or lysates may run through a third protein. Some results given as binding are weak or reduced against the parent protein; the word gives no strength.

The chains behind the UniProt entries cited, without tags or fusion partners.
UniProt P16110: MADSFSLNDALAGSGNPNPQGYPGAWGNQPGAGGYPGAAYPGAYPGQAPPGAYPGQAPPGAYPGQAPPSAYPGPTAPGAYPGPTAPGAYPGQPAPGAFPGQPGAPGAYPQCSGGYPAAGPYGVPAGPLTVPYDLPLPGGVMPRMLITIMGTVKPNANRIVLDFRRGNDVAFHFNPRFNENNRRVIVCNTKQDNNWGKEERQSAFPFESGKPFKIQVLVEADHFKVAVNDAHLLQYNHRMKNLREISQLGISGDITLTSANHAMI

Key:
[1] = biological target: T1, CD100 (mouse (endogenous in thymic TNC complexes)) (UniProt O09126); experiment: co-IP; TNC complexes of AKO (adiponectin knockout) mice; immunoprecipitation with a polyclonal antibody to CD100 amino acids 812-862, Western blot for galectin-3
T1 sequence: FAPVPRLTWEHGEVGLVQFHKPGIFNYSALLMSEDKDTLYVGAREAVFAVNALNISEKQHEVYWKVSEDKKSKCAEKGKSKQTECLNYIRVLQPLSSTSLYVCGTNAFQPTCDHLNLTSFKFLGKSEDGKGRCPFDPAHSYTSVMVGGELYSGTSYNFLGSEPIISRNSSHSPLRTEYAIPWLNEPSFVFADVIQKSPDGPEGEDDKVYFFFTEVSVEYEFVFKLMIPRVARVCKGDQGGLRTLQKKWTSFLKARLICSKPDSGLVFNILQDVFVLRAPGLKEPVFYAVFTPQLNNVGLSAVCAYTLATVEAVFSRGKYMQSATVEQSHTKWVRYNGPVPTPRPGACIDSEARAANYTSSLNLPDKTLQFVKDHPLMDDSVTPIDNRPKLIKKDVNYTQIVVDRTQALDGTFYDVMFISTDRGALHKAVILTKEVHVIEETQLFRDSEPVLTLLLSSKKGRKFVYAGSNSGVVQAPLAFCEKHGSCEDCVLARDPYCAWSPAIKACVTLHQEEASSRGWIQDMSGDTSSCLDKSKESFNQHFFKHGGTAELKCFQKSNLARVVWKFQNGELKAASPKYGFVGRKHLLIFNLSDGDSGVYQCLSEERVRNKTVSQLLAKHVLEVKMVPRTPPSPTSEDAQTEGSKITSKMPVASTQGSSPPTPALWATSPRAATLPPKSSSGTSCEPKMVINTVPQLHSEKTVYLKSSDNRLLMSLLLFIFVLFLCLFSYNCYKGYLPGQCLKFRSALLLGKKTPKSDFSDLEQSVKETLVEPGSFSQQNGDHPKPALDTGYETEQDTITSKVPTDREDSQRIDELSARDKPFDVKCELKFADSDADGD

[2] = biological target: T1, CD100 (mouse (endogenous in thymic TNC complexes)); experiment: co-IP; TNC complexes of WT mice; immunoprecipitation with a polyclonal antibody to CD100 amino acids 502-636, Western blot for adiponectin

For galectin-3 (from UniProt P16110 1-264), the binding [1] was “binds”.

B1: Adiponectin (natural protein, mouse (endogenous in thymus), UniProt Q60994 18-247, looked up)
chain: EDDVTTTEELAPALVPPPKGTCAGWMAGIPGHPGHNGTPGRDGRDGTPGEKGEKGDAGLLGPKGETGDVGMTGAEGPRGFPGTPGRKGEPGEAAYVYRSAFSVGLETRVTVPNVPIRFTKIFYNQQNHYDGSTGKFYCNIPGLYYFSYHITVYMKDVKVSLFKKDKAVLFTYDQYQEKNVDQASGSVLLHLEVGDQVWLQVYGDGDHNGLYADNVNDSTFTGFLLYHDTN
notes: adiponectin, mouse, endogenous protein of thymus and thymic nurse cell (TNC) complexes; found as trimer, hexamer and HMW oligomers; Endogenous secreted glycoprotein; detected with a polyclonal antibody against murine adiponectin; also called Adn; ADIPOQ; source: endogenous, thymus tissue and TNC complexes of wild-type mice, in lysate
B1 was tested, and the binding [2] was “binds”.
